# The supplement of paper PMC8728848
# This is one part of the list.
# B1: HFR-3 (Triticum aestivum) (protein)
# chain: MKGLLLCALALAFAAVTTHAQLQSCPTRCGKQADGMECPNNLCCSKDGYCGLGVDYCSAGAGCQSGACYDNKICGAQANGTLCRNNHCCSSGGRCGYGREYCSNGCQGGPCWADLKCGHLDNGKLCPNNLCCSQYGYCGLGPEFCGTGCQNGACSTDKPCGNKANGAPCTNNYCCSQYGSCGLGKDYCGTGCQNGACN
# Columns and labels:
# Assay in all cases: glycan array binding signal (z-score within array); higher = stronger binding
# Conditions in all cases: glycan notation: IUPAC condensed, linker removed
# [1] = biological target: Gal(b1-4)GlcNAc(b1-2)[Gal(b1-4)GlcNAc(b1-4)]Man(a1-3)[Gal(b1-4)GlcNAc(b1-2)Man(a1-6)]Man(b1-4)GlcNAc(b1-4)GlcNAc
# Procedure, shortened: (§1)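 Glycan array data were curated from 3228 arrays in the Consortium for Functional Glycomics database and kept only where the protein sequence was available. Glycan names were converted to IUPAC-condensed notation, and columns mapping to the same glycan were averaged. The binding signal is a within-array Z-score, averaged across arrays of the same protein sequence at different concentrations or buffers and across linkers. Negative Z-scores can be read as non-binding.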
# [2] = biological target: Gal(b1-4)GlcNAc(b1-2)[Gal(b1-4)GlcNAc(b1-4)]Man(a1-3)[Gal(b1-4)GlcNAc(b1-2)[Gal(b1-4)GlcNAc(b1-6)]Man(a1-6)]Man(b1-4)GlcNAc(b1-4)GlcNAc
# Procedure, shortened: as §1
# [3] = biological target: Gal(b1-4)GlcNAc(b1-2)[Gal(b1-4)GlcNAc(b1-4)]Man(a1-3)[GlcNAc(b1-4)][Gal(b1-4)GlcNAc(b1-2)Man(a1-6)]Man(b1-4)GlcNAc(b1-4)GlcNAc
# Procedure, shortened: as §1
# [4] = biological target: Gal(b1-4)GlcNAc(b1-2)[Gal(b1-4)GlcNAc(b1-4)]Man(a1-3)[GlcNAc(b1-4)][Gal(b1-4)GlcNAc(b1-2)[Gal(b1-4)GlcNAc(b1-6)]Man(a1-6)]Man(b1-4)GlcNAc(b1-4)GlcNAc
# Procedure, shortened: as §1
# [5] = biological target: Gal(b1-4)GlcNAc(b1-2)[Gal(b1-4)GlcNAc(b1-6)]Man(a1-6)[Gal(b1-4)GlcNAc(b1-2)Man(a1-3)]Man(b1-4)GlcNAc(b1-4)GlcNAc
# Procedure, shortened: as §1
# [6] = biological target: Gal(b1-4)GlcNAc(b1-2)[Gal(b1-4)GlcNAc(b1-6)]Man(a1-6)[Gal(b1-4)GlcNAc(b1-2)Man(a1-3)]Man(b1-4)GlcNAc(b1-4)[Fuc(a1-6)]GlcNAc
# Procedure, shortened: as §1
# [7] = biological target: Gal(b1-4)GlcNAc(b1-2)[Gal(b1-4)GlcNAc(b1-6)]Man(a1-6)[GlcNAc(b1-4)][Gal(b1-4)GlcNAc(b1-2)Man(a1-3)]Man(b1-4)GlcNAc(b1-4)GlcNAc
# Procedure, shortened: as §1
# [8] = biological target: Gal(b1-4)GlcNAc(b1-2)[Gal(b1-4)GlcNAc(b1-6)]Man(a1-6)[GlcNAc(b1-4)][Gal(b1-4)GlcNAc(b1-2)[Gal(b1-4)GlcNAc(b1-4)]Man(a1-3)]Man(b1-4)GlcNAc(b1-4)[Fuc(a1-6)]GlcNAc
# Procedure, shortened: as §1
# [9] = biological target: Gal(b1-4)GlcNAc(b1-3)Gal(b1-3)GalNAc
# Procedure, shortened: as §1
# [10] = biological target: Gal(b1-4)GlcNAc(b1-3)Gal(b1-3)GlcNAc
# Procedure, shortened: as §1
# [11] = biological target: Gal(b1-4)GlcNAc(b1-3)Gal(b1-4)Glc
# Procedure, shortened: as §1
# [12] = biological target: Gal(b1-4)GlcNAc(b1-3)Gal(b1-4)GlcNAc
# Procedure, shortened: as §1
# [13] = biological target: Gal(b1-4)GlcNAc(b1-3)Gal(b1-4)GlcNAc(b1-2)Man(a1-3)[Gal(b1-4)GlcNAc(b1-3)Gal(b1-4)GlcNAc(b1-2)Man(a1-6)]Man(b1-4)GlcNAc(b1-4)GlcNAc
# Procedure, shortened: as §1
# [14] = biological target: Gal(b1-4)GlcNAc(b1-3)Gal(b1-4)GlcNAc(b1-2)Man(a1-3)[Gal(b1-4)GlcNAc(b1-3)Gal(b1-4)GlcNAc(b1-2)Man(a1-6)]Man(b1-4)GlcNAc(b1-4)[Fuc(a1-6)]GlcNAc
# Procedure, shortened: as §1
# [15] = biological target: Gal(b1-4)GlcNAc(b1-3)Gal(b1-4)GlcNAc(b1-2)[Gal(b1-4)GlcNAc(b1-3)Gal(b1-4)GlcNAc(b1-6)]Man(a1-6)[Gal(b1-4)GlcNAc(b1-3)Gal(b1-4)GlcNAc(b1-2)Man(a1-3)]Man(b1-4)GlcNAc(b1-4)GlcNAc
# Procedure, shortened: as §1
# [16] = biological target: Gal(b1-4)GlcNAc(b1-3)Gal(b1-4)GlcNAc(b1-2)[Gal(b1-4)GlcNAc(b1-3)Gal(b1-4)GlcNAc(b1-6)]Man(a1-6)[Gal(b1-4)GlcNAc(b1-3)Gal(b1-4)GlcNAc(b1-2)Man(a1-3)]Man(b1-4)GlcNAc(b1-4)[Fuc(a1-6)]GlcNAc
# Procedure, shortened: as §1
# [17] = biological target: Gal(b1-4)GlcNAc(b1-3)Gal(b1-4)GlcNAc(b1-3)Gal(b1-4)GlcNAc
# Procedure, shortened: as §1
# [18] = biological target: Gal(b1-4)GlcNAc(b1-3)Gal(b1-4)GlcNAc(b1-3)Gal(b1-4)GlcNAc(b1-2)Man(a1-3)[Gal(b1-4)GlcNAc(b1-3)Gal(b1-4)GlcNAc(b1-3)Gal(b1-4)GlcNAc(b1-2)Man(a1-6)]Man(b1-4)GlcNAc(b1-4)GlcNAc
# Procedure, shortened: as §1
# [19] = biological target: Gal(b1-4)GlcNAc(b1-3)Gal(b1-4)GlcNAc(b1-3)Gal(b1-4)GlcNAc(b1-2)Man(a1-3)[Gal(b1-4)GlcNAc(b1-3)Gal(b1-4)GlcNAc(b1-3)Gal(b1-4)GlcNAc(b1-2)Man(a1-6)]Man(b1-4)GlcNAc(b1-4)[Fuc(a1-6)]GlcNAc
# Procedure, shortened: as §1
# [20] = biological target: Gal(b1-4)GlcNAc(b1-3)Gal(b1-4)GlcNAc(b1-3)Gal(b1-4)GlcNAc(b1-2)[Gal(b1-4)GlcNAc(b1-3)Gal(b1-4)GlcNAc(b1-3)Gal(b1-4)GlcNAc(b1-6)]Man(a1-6)[Gal(b1-4)GlcNAc(b1-3)Gal(b1-4)GlcNAc(b1-3)Gal(b1-4)GlcNAc(b1-2)Man(a1-3)]Man(b1-4)GlcNAc(b1-4)[Fuc(a1-6)]GlcNAc
# Procedure, shortened: as §1
# [21] = biological target: Gal(b1-4)GlcNAc(b1-3)Gal(b1-4)GlcNAc(b1-3)Gal(b1-4)GlcNAc(b1-3)Gal(b1-4)GlcNAc(b1-2)Man(a1-3)[Gal(b1-4)GlcNAc(b1-3)Gal(b1-4)GlcNAc(b1-3)Gal(b1-4)GlcNAc(b1-3)Gal(b1-4)GlcNAc(b1-2)Man(a1-6)]Man(b1-4)GlcNAc(b1-4)GlcNAc
# Procedure, shortened: as §1
# [22] = biological target: Gal(b1-4)GlcNAc(b1-3)Gal(b1-4)GlcNAc(b1-3)Gal(b1-4)GlcNAc(b1-3)Gal(b1-4)GlcNAc(b1-2)Man(a1-3)[Gal(b1-4)GlcNAc(b1-3)Gal(b1-4)GlcNAc(b1-3)Gal(b1-4)GlcNAc(b1-3)Gal(b1-4)GlcNAc(b1-2)Man(a1-6)]Man(b1-4)GlcNAc(b1-4)[Fuc(a1-6)]GlcNAc
# Procedure, shortened: as §1
binder,measurement,setting,value
B1,glycan array binding signal (z-score),[1],-1.05
same,glycan array binding signal (z-score),[2],-1.23
same,glycan array binding signal (z-score),[3],-0.238
same,glycan array binding signal (z-score),[4],-0.437
same,glycan array binding signal (z-score),[5],0.188
same,glycan array binding signal (z-score),[6],-0.167
same,glycan array binding signal (z-score),[7],1.51
same,glycan array binding signal (z-score),[8],-1.17
same,glycan array binding signal (z-score),[9],1.2
same,glycan array binding signal (z-score),[10],0.558
same,glycan array binding signal (z-score),[11],-1.16
same,glycan array binding signal (z-score),[12],-0.137
same,glycan array binding signal (z-score),[13],0.764
same,glycan array binding signal (z-score),[14],-0.313
same,glycan array binding signal (z-score),[15],0.637
same,glycan array binding signal (z-score),[16],0.428
same,glycan array binding signal (z-score),[17],2.1
same,glycan array binding signal (z-score),[18],0.533
same,glycan array binding signal (z-score),[19],-1.25
same,glycan array binding signal (z-score),[20],2.51
same,glycan array binding signal (z-score),[21],0.946
same,glycan array binding signal (z-score),[22],-0.145

# Given with tabs: entries from further up.
binder	measurement	setting	value
B1	glycan array binding signal (z-score)	[4]	-0.437
same	glycan array binding signal (z-score)	[5]	0.188
